Measured values as given in paper PMC12307642.
Results are given in words; binding and its absence hold for the method and conditions named. Binding seen in cells or lysates may run through a third protein. Some binding calls cover weakened binding; strength is not graded here. Tags and fused reporters may be left off the sequences shown. Blank lines part the entries; values can stand above or below the molecule they belong to.

Sequences of proteins named here, by UniProt entry; tags and fusion partners are left off. A change or cut given only in a name is not applied to a line headed by its entry.
UniProt P06733: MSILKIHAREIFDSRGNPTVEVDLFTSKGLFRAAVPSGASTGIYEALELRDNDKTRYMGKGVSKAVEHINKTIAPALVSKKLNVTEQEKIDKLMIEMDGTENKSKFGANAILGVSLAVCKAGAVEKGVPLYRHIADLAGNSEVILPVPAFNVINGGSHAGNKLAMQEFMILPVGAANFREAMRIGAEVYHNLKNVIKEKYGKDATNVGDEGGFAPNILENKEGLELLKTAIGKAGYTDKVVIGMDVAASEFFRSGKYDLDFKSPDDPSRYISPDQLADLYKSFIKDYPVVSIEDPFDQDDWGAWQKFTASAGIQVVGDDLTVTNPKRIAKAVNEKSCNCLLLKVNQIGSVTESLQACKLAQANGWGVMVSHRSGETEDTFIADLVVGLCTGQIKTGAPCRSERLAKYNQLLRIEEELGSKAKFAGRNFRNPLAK

How the values were obtained:
[1] = biological target: T1, Flag-tagged circUBE2G1-99aa (human) (UniProt P62253); experiment: co-IP; Pierce Co-IP kit; cell lysates incubated with primary antibody immobilised on AminoLink Plus Coupling Resin overnight at 4 °C, three washes, eluates analysed by Western blot; done in both directions and with truncation variants of both proteins
T1 sequence: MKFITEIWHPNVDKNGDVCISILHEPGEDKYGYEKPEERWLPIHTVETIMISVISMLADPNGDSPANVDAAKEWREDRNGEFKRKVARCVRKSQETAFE

[2] = biological target: enolase 1 (ENO1) (human (endogenous in HGC-27)) (UniProt P06733); experiment: as above

binding [1]: binds
Molecule: TIM barrel domain of ENO1 (residues 140-434) (from UniProt P06733 140-434) (domain or fragment)

binding [1]: binds
Molecule: enolase 1 (ENO1) (from UniProt P06733 1-434) (enzyme)

binding [2]: binds
B1: Flag-tagged circUBE2G1-99aa (protein, UniProt P62253 72-170)
chain: T1 sequence
